# From the supplement of paper PMC10849652
# Chains of the proteins cited; added tags and fusions are not shown. Lines headed by an entry give the natural chain unless they say otherwise; changes in a name come on top.
# UniProt Q8NE86: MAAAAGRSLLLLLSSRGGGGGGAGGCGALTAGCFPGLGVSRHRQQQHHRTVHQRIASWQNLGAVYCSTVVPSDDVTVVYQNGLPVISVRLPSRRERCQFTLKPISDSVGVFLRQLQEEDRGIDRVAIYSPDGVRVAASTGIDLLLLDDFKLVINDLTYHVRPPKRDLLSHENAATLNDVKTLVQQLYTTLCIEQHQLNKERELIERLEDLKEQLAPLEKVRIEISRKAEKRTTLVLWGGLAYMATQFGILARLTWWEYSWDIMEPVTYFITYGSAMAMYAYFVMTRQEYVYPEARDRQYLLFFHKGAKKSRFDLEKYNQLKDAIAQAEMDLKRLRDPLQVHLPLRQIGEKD
# UniProt P33991: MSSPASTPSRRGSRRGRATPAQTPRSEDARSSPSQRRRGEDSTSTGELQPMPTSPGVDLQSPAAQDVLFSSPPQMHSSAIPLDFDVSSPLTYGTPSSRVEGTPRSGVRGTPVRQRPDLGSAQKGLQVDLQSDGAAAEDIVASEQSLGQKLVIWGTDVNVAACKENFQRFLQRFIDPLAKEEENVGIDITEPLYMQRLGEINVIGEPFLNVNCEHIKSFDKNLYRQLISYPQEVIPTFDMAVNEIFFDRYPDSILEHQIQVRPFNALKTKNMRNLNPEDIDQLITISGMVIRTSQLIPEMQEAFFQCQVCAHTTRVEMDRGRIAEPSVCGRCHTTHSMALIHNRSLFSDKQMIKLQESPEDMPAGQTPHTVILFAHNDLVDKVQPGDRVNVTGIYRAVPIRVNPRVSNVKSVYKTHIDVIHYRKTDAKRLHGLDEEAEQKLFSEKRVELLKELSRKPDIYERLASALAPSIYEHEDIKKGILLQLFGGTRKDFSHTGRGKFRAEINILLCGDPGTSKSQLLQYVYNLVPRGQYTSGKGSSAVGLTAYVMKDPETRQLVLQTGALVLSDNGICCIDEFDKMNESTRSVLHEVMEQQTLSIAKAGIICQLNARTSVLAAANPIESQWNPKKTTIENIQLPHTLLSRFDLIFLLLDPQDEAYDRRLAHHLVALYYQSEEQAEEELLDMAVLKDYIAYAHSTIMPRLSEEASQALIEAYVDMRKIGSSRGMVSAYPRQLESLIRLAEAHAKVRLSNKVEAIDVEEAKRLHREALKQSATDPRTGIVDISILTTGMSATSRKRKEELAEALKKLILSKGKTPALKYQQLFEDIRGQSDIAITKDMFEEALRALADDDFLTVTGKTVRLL
# UniProt P23368: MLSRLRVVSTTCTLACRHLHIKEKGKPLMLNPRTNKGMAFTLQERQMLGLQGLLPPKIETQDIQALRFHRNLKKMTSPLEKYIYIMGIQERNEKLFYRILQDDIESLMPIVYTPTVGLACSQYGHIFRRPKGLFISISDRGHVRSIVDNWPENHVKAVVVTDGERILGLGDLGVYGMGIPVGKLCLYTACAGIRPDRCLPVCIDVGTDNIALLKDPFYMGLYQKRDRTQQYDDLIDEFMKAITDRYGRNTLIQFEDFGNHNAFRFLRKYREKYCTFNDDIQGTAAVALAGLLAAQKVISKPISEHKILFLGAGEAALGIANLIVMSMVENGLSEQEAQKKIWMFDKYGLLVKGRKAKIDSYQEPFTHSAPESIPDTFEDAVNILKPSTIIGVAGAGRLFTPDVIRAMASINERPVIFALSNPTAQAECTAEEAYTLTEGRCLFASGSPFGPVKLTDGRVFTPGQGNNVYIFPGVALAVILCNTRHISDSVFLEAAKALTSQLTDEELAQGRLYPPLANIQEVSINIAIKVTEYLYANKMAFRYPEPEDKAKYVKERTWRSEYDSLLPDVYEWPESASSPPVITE
# UniProt Q86XN8: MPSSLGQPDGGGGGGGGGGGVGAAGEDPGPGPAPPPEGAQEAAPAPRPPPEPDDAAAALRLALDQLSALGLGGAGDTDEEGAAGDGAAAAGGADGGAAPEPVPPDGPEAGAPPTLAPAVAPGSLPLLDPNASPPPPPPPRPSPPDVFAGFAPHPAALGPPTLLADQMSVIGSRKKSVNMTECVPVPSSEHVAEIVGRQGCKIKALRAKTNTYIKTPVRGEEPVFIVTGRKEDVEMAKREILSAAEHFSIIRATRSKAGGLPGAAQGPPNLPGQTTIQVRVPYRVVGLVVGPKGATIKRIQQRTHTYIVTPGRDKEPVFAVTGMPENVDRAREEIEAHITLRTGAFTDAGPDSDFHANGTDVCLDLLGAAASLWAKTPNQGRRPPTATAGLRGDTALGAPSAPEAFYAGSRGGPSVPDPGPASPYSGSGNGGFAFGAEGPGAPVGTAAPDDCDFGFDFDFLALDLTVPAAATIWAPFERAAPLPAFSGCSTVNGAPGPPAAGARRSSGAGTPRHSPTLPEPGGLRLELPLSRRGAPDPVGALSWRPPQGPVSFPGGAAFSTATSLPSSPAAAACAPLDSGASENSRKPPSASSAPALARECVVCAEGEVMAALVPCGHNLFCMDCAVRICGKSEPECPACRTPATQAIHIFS
# UniProt Q9BV79: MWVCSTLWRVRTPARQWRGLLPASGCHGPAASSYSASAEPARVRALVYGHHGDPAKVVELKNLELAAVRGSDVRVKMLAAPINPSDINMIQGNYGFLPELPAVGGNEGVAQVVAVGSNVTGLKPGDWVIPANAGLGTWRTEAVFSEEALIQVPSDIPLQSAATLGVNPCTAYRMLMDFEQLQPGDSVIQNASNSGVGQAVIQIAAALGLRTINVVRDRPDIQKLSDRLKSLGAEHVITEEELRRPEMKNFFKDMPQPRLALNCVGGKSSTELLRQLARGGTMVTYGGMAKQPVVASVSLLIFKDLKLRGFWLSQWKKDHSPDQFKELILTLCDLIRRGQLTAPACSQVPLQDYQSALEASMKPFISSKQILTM
# UniProt Q9NRN9: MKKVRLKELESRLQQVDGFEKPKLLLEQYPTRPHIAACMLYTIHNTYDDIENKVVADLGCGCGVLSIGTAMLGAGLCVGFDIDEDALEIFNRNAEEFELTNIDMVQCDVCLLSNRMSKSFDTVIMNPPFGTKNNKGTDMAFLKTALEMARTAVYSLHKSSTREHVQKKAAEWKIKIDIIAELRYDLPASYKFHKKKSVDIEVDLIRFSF
# UniProt Q6UB28: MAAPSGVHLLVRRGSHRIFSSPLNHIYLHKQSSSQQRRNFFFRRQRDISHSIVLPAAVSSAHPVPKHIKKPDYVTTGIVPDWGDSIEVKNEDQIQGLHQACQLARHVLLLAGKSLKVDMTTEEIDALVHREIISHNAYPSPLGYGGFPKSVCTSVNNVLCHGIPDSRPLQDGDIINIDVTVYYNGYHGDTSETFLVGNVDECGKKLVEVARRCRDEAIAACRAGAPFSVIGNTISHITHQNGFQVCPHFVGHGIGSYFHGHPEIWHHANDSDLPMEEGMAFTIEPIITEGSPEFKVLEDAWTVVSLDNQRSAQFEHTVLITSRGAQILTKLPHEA
# UniProt Q9GZY8: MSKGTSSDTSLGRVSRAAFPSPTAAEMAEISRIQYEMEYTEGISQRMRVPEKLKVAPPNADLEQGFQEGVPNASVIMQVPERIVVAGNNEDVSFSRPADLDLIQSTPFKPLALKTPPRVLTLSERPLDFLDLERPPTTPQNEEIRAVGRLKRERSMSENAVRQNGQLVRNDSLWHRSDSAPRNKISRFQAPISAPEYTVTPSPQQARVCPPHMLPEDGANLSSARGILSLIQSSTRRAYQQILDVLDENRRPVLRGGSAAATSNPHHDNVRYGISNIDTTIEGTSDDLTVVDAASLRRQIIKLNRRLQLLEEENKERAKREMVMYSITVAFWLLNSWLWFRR
# UniProt Q15648, whole entry, looked up: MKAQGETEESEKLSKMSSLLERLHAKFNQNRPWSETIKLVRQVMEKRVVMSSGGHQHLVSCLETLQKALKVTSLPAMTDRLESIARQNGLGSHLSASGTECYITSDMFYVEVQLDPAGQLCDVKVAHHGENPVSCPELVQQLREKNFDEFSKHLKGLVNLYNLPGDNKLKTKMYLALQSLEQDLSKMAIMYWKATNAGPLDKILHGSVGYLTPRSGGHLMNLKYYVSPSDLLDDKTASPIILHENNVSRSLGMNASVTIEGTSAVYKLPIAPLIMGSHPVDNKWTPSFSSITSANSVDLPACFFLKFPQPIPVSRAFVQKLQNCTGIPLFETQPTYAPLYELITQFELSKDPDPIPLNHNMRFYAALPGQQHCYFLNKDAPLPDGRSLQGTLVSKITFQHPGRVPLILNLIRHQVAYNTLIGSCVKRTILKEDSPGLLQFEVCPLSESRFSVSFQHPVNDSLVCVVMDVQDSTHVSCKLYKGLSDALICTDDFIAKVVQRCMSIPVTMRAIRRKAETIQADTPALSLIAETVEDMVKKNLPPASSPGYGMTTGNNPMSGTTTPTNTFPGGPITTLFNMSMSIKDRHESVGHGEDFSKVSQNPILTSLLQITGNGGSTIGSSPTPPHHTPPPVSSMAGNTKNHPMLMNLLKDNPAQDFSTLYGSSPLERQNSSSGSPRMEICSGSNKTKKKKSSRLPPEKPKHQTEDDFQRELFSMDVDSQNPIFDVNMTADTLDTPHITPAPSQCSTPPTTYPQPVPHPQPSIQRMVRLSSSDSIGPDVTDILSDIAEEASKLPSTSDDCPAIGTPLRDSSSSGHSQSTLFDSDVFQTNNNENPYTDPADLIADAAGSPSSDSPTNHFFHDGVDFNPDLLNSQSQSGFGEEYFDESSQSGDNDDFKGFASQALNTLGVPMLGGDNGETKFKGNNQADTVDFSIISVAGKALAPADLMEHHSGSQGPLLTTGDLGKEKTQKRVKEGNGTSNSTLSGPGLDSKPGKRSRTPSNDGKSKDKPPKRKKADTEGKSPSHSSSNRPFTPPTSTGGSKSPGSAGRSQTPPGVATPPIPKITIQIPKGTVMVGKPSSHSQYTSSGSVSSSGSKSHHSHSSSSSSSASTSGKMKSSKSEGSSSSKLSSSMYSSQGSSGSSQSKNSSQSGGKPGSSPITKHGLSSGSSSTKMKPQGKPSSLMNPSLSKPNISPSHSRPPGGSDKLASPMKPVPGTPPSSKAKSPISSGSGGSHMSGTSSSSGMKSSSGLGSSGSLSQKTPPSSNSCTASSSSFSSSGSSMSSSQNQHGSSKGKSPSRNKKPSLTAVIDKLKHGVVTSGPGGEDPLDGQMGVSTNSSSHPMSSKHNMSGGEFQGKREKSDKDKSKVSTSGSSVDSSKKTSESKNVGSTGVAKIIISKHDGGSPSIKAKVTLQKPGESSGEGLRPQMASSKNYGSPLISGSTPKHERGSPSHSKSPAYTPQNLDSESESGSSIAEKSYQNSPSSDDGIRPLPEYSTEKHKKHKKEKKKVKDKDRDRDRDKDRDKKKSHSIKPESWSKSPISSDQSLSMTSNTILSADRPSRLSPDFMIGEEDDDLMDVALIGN
# UniProt Q6N075: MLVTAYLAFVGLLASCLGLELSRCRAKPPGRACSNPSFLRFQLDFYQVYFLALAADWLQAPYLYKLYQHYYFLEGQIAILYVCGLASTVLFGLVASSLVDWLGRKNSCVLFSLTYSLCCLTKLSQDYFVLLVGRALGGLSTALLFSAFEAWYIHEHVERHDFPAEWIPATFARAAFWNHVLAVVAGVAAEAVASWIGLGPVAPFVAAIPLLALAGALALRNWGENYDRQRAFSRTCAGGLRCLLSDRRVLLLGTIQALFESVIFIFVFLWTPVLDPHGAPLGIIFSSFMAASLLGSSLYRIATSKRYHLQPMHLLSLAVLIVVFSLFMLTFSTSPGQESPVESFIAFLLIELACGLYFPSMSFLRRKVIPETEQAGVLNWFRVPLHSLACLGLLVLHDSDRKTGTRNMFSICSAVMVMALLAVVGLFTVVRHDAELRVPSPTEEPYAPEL
# UniProt P55081: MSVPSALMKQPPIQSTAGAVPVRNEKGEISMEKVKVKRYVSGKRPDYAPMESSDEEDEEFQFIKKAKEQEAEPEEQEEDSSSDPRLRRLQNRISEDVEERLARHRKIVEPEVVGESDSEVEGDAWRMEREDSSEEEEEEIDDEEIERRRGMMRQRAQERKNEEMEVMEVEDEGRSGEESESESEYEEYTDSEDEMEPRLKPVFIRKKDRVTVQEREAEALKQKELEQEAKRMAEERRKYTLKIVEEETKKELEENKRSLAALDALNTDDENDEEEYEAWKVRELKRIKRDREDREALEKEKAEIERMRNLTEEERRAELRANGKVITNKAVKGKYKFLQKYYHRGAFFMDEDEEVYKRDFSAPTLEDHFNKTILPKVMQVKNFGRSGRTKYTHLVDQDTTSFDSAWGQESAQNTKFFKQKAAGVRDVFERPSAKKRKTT
# This is one part of the list.
# What was measured:
# Test in all cases: log2 fold change, soluble protein after heating vs DMSO (PISA); higher = thermal stabilisation; K562 lysate, 10 uM; active = over 0.2 and 3.5 SD of the protein, either way, in both replicates (recomputed)
# nilotinib = compound: Cc1cn(-c2cc(NC(=O)c3ccc(C)c(Nc4nccc(-c5cccnc5)n4)c3)cc(C(F)(F)F)c2)cn1 [nilotinib]
# Procedure, shortened: (§1)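 K562 pellets were dounce-homogenised in PBS pH 7.4 with 1 mM MgCl2, and the crude extract at 1 mg/mL protein was treated with 10 μM compound for 30 min. Aliquots were heated for 3 min across 48°C-58°C, pooled, and brought to 0.5% NP-40 at 4°C; soluble protein was the supernatant after 21,000xg for 90 min. Soluble protein was quantified by TMTpro 16plex LC-MS/MS with channel sums equalised, and reported as log2 fold change in thermal stability against DMSO controls, with values from duplicates.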
# [1] = compound: Cc1nc(Nc2n[nH]c3c2CN(C(=O)N[C@H](CN(C)C)c2ccccc2)C3(C)C)c2sccc2n1
# Procedure, shortened: as §1
# dasatinib = compound: Cc1nc(Nc2ncc(C(=O)Nc3c(C)cccc3Cl)s2)cc(N2CCN(CCO)CC2)n1 [dasatinib]
# Procedure, shortened: as §1
# [2] = compound: Cc1ncc(-c2ccnc(Nc3ccc(S(C)(=O)=O)cc3)n2)n1C(C)C
# Procedure, shortened: as §1
# [3] = compound: Cn1cc(-c2ccc3c(c2)CCN3C(=O)Cc2cccc(C(F)(F)F)c2)c2c(N)ncnc21
# Procedure, shortened: as §1
# quisinostat = compound: Cn1cc(CNCC2CCN(c3ncc(C(=O)NO)cn3)CC2)c2ccccc21 [quisinostat]
# Procedure, shortened: as §1
# tipifarnib = compound: Cn1cncc1[C@@](N)(c1ccc(Cl)cc1)c1ccc2c(c1)c(-c1cccc(Cl)c1)cc(=O)n2C [tipifarnib]
# Procedure, shortened: as §1
# [4] = compound: NC(=O)Nc1cc(-c2cccc(F)c2)sc1C(=O)N[C@H]1CCCNC1
# Procedure, shortened: as §1
# [5] = compound: NC(=O)c1cnc(N[C@@H]2CCCC[C@@H]2N)nc1Nc1cccc(-n2nccn2)c1
# Procedure, shortened: as §1
# [6] = compound: NC1(c2ccc(-c3nc4ccn5c(=O)[nH]nc5c4cc3-c3ccccc3)cc2)CCC1
# Procedure, shortened: as §1
# [7] = compound: NCC(=O)Nc1ccc(-n2nc(C(F)(F)F)cc2-c2ccc3c(ccc4ccccc43)c2)cc1
# Procedure, shortened: as §1
# vorinostat = compound: O=C(CCCCCCC(=O)Nc1ccccc1)NO [vorinostat]
# Procedure, shortened: as §1
# silmitasertib = compound: O=C(O)c1ccc2c(c1)nc(Nc1cccc(Cl)c1)c1ccncc12 [silmitasertib]
# Procedure, shortened: as §1
# [8] = compound: O=C1NC(=O)C(c2cnc3ccccn23)=C1c1cn2c3c(cc(F)cc13)CN(C(=O)N1CCCCC1)CC2
# Procedure, shortened: as §1
# entospletinib = compound: c1cn2cc(-c3ccc4cn[nH]c4c3)nc(Nc3ccc(N4CCOCC4)cc3)c2n1 [entospletinib]
# Procedure, shortened: as §1
Target,log2 fold change (nilotinib),log2 fold change [1],log2 fold change (dasatinib),log2 fold change [2],log2 fold change [3],log2 fold change (quisinostat),log2 fold change (tipifarnib),log2 fold change [4],log2 fold change [5],log2 fold change [6],log2 fold change [7],log2 fold change (vorinostat),log2 fold change (silmitasertib),log2 fold change [8],log2 fold change (entospletinib)
MCU (UniProt Q8NE86),inactive: -0.044,inactive: 0.012,inactive: -0.065,inactive: 0.072,inactive: 0.006,inactive: -0.054,inactive: -0.096,inactive: 0.011,inactive: 0.025,inactive: -0.085,inactive: -0.037,inactive: 0.04,inactive: 0,inactive: -0.072,inactive: -0.016
MCM4 (UniProt P33991),inactive: 0.008,inactive: -0.017,inactive: -0.063,inactive: -0.018,inactive: 0.004,inactive: -0.028,inactive: -0.027,inactive: 0.013,inactive: -0.002,inactive: -0.022,inactive: 0.019,inactive: -0.02,inactive: 0.079,inactive: 0.012,inactive: 0.012
ME2 (UniProt P23368),inactive: -0.01,inactive: -0.01,inactive: 0.089,inactive: 0.031,inactive: 0.034,inactive: -0.022,inactive: 0.023,inactive: 0.01,inactive: -0.013,inactive: 0.033,inactive: -0.009,inactive: 0.156,inactive: 0.052,inactive: 0.005,inactive: -0.015
MEX3D isoform 3 (UniProt Q86XN8),inactive: -0.011,inactive: 0.066,inactive: 0.15,inactive: 0.016,inactive: -0.16,inactive: -0.041,inactive: -0.057,inactive: 0.056,inactive: 0.076,inactive: 0.029,inactive: 0.014,inactive: -0.354,inactive: -0.134,inactive: -0.015,inactive: 0
MECR (UniProt Q9BV79),inactive: -0.085,inactive: 0.012,inactive: -0.03,inactive: -0.004,inactive: 0.02,inactive: 0.07,inactive: -0.009,inactive: -0.041,inactive: 0.02,inactive: -0.028,inactive: -0.037,active: -0.268,inactive: 0.009,inactive: -0.016,inactive: 0.011
METTL5 (UniProt Q9NRN9),inactive: 0.017,inactive: -0.023,inactive: -0.034,inactive: -0.002,inactive: 0.013,inactive: -0.026,inactive: 0.015,inactive: -0.018,inactive: -0.008,inactive: -0.04,inactive: 0.007,inactive: 0.141,inactive: 0,inactive: -0.011,inactive: 0.016
METAP1D (UniProt Q6UB28),inactive: 0.02,inactive: -0.055,inactive: -0.016,inactive: 0.019,inactive: -0.059,inactive: 0.046,inactive: -0.014,inactive: 0.028,inactive: 0.022,inactive: -0.072,inactive: 0.002,inactive: 0.221,inactive: -0.09,inactive: -0.01,inactive: 0.027
MFF isoform 2 (UniProt Q9GZY8),inactive: -0.025,inactive: -0.039,inactive: -0.005,inactive: 0.008,inactive: -0.012,inactive: 0.002,inactive: -0.004,inactive: 0.007,inactive: 0.016,inactive: -0.026,inactive: 0.003,inactive: 0.17,inactive: -0.048,inactive: 0.029,inactive: -0.055
MED1 (UniProt Q15648),inactive: 0.041,inactive: -0.035,inactive: -0.016,inactive: 0.009,inactive: -0.026,inactive: 0,inactive: -0.022,inactive: 0.007,inactive: -0.011,inactive: 0.003,inactive: 0.009,inactive: -0.092,inactive: -0.022,inactive: 0.008,inactive: -0.029
MFSD5 isoform 2 (UniProt Q6N075),inactive: 0.132,inactive: 0.073,inactive: 0.001,inactive: -0.002,inactive: -0.058,inactive: 0,inactive: -0.132,inactive: 0.023,inactive: -0.145,inactive: -0.147,inactive: -0.111,inactive: 0.122,inactive: -0.002,inactive: -0.022,inactive: -0.062
MFAP1 (UniProt P55081),inactive: -0.059,inactive: 0.007,inactive: 0.037,inactive: -0.056,inactive: 0.001,inactive: 0.108,inactive: 0.006,inactive: -0.031,inactive: 0.037,inactive: 0,inactive: -0.008,inactive: 0.173,inactive: -0.043,inactive: 0.024,inactive: 0.024
